## Primary screen of a compound library

By UniProt entry, the sequences of proteins in these tests, tags left out. Residues count along the entry.
UniProt P9WPC5, whole entry: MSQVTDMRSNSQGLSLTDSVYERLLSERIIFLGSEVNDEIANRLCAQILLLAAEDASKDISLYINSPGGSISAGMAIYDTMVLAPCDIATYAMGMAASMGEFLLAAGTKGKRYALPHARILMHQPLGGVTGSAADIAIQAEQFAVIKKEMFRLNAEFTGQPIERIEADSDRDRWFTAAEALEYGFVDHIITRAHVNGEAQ
UniProt P9WPC3, whole entry partner: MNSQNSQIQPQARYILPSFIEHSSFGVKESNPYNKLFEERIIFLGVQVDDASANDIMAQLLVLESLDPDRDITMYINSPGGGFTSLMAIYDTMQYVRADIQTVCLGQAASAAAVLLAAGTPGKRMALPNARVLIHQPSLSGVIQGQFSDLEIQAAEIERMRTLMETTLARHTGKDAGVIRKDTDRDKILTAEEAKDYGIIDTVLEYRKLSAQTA
UniProt A4I591, 1-473: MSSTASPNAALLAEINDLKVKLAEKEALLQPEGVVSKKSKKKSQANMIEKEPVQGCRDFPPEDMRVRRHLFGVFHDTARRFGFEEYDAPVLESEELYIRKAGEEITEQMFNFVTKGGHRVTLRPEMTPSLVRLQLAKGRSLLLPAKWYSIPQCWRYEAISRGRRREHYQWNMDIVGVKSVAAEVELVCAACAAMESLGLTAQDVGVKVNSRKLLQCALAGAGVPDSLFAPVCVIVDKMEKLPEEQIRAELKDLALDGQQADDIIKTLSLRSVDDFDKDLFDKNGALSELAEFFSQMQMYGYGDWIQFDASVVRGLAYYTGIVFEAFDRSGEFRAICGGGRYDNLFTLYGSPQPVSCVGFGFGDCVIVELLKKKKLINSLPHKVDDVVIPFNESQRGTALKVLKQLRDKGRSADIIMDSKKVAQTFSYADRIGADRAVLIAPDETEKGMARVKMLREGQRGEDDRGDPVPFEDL

The values are deposited in ChEMBL (CHEMBL3988442, “University of Dundee, Small-Polar-MMV Screening Library” (2021)).

A: 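ClpP1P2, Mycobacterium tuberculosis (UniProt P9WPC5 and UniProt P9WPC3). Protease assay of ClpP1P2, read by the AMC dye that it sets free. Tested at 50 µM. Higher reads as stronger inhibition, judged from the few compounds that gave an IC50. Most other retested compounds had strongly negative values. Size under these conditions: about 69,000 compounds, about 10 of them at 50% or above in at least one test.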
B: 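Histidine-tRNA ligase, Leishmania infantum (UniProt A4I591). Enzyme assay of histidyl-tRNA synthetase; the read-out is not stated. Compounds at 30 µM. The record gives no direction; compounds that gave an IC50 in retests scored well above the rest, so higher reads as stronger inhibition. The assay is labelled LdHisRS but filed under L. infantum. Size under these conditions: about 69,000 compounds, about 410 of them at 50% or above in at least one test.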

The filed quantity is “Percent Effect” (%).
The record does not define 0% and 100%; most values in the screen are far below 50% and negative numbers occur (in some assays of this library far below -100).
Compounds were drawn at random from those tested, without regard to their results.

SMILES	A	B
COc1ccc(N2CCCC3(C2)CN(c2nncs2)CCO3)cc1 (configuration not stated)	-11.82	6.195
O=C(Cc1cccc(O)c1)N1CCC2(CC1)c1ccccc1CC2O (configuration not stated)	-7.065	16.8
CCCC(=O)NC(C)(C)Cc1ccccc1OC	1.562	8.036
CN1CCOC(CNCc2coc(-c3ccccc3Cl)n2)C1 (configuration not stated)	-2.725	14.29
CC(C)CN1CC(C(=O)N(C)CCc2cn[nH]c2)CC1=O (configuration not stated)	-1.682	13.33
CCOC(=O)C1(O)CCN(C(=O)Nc2cccc(F)c2)CC1	0.05616	14.67
COc1ccc(-c2csc3c2c(N)nc(=O)n3CCCN(C)C)cc1	-6.725	18.42
Cc1cnc(C(=O)N2CCC3(CC2)CN(c2ccccn2)CCO3)cn1	-6.705	6.422
CCc1cnc(N2CC[C@@H]3CN(C(C)=O)CCO[C@@H]3C2)nc1	-7.028	10.53
CCN(CC)C(=O)NCCc1ccn(-c2ccccc2)n1	-15.35	15.38
CCN(CC)C(=O)C1(NCc2nc(C)c(C)o2)CCCCC1	-1.223	-0.5236
COc1ccc(C(=O)NS(=O)(=O)c2ccc(CNC(C)=O)s2)cc1	-4.197	11.43
COc1ccccc1CNC(=O)CS(=O)(=O)Cc1ccccc1	-0.9467	10.62
CC(NC(=O)CCc1nc(-c2nnc[nH]2)no1)c1ccc(F)cc1F (configuration not stated)	-4.514	24.73
CCn1cnnc1C1CCN(C(=O)c2cc(OC)ccc2OC)CC1	4.644	6.957
CCn1nc(C)cc1C(=O)N1C[C@H]2CCC[C@@]2(COc2ccccn2)C1	-2.482	10.91
CC(CC(=O)c1ccccc1)NC(=O)c1ccon1 (configuration not stated)	-2.694	21.24
CCc1nc(C2CCCN(C(=O)CC3CCOCC3)C2)no1 (configuration not stated)	-55.08	16.81
COCCN(CCOC)C(=O)c1ccn(-c2ccc3ccccn23)n1	-4.47	20
c1cncc(-c2ncnc3c2CCN(Cc2ccsc2)CC3)c1	7.362	5.556
O=C(c1cnccn1)N1CCOC2(CCCN(c3ncccc3F)C2)C1 (configuration not stated)	-3.754	13.76
Cc1nnc(SC2CCN(c3sccc3C#N)C2=O)s1 (configuration not stated)	-0.8457	24.49
O=C(Cc1csc(-c2ccccc2F)n1)NCc1ccc(C(=O)O)cc1	0.7881	15.22
Cc1ccc(N2CC(c3nccc(C)n3)C2)nn1	-2.896	-10.14
CN(CCOCC(F)(F)F)CC1CCN(CCO)CC1	3.827	1.667
CCC(CNS(=O)(=O)c1cccc(C(=O)OC)c1)N1CCCC1 (configuration not stated)	5.364	30.67
O=C1NC[C@@]2(C(=O)O)CN(Cc3ccc(Oc4ccccc4)cc3)C[C@@H]12	-2.386	12.12
CCOCC(=O)N1CCn2cc(CN(C)Cc3ccco3)nc2C1	3.761	18.58
CCS(=O)(=O)c1ccc2oc([C@H]3CCN(Cc4ccccn4)C3)nc2c1	-4.684	24.32
O=C(NCCCN1CCOCC1)c1cc(-c2ccc3c(c2)CCO3)n[nH]1	0.7426	3.883
O=C(Nc1nc2c(s1)CN(S(=O)(=O)C1CC1)CC2)c1ccccn1	-12.23	7.692
Cc1nccn1Cc1nnc(C2CCCN(c3ncccc3F)C2)n1C (configuration not stated)	-8.54	10.39
O=S(=O)(c1ccccc1)N1C[C@@H]2COC[C@]2(CN2CCOCC2)C1	-3.449	0.8403
COc1ccnc(N(C)Cc2c(C)noc2C)n1	-2.266	14.47
Cc1nnc2n1CCN(C(=O)C1CCC(n3cccc3)CC1)C2 (configuration not stated)	-5.483	28.92
c1ncn(CC2CCCN2Cc2csc(C3CCCCC3)n2)n1 (configuration not stated)	-30.01	18.64
CCN1CC2(CCC1=O)CCN(Cc1cscn1)CC2	-4.651	16.87
O=C(CC1CC1)N[C@@H]1CN(Cc2nccs2)C[C@@H]2CCCO[C@@H]21	-13.91	25.71
Fc1ccccc1CN1C[C@H](OCC2CCOCC2)[C@H]2OCCC[C@H]21	0.3498	26.03
CCc1cc(CNC(=O)NCc2ccc(N3CCCCC3)cc2)on1	-16.34	11.2
COc1cccc(-c2nc(C)c(C(=O)N[C@H](CO)CCSC)s2)c1	1.891	7.895
O=C([C@H]1C[C@H]2OCC[C@H]2N(Cc2ccncc2)C1)N1CCCCO1	-3.278	15.09
CN1CCN(C(=O)Cn2ccc3c(Cl)cccc32)CC1	3.52	12.99
Cc1cc(C)n(C2CN(c3ncnc4c3CCC4)C2)n1	5.724	20.88
Cc1ccccc1C1(CNCc2cnc(N3CCOCC3)nc2)CC1	5.983	19.47
CC(C)n1cnnc1SCCN(C)c1ccccc1	-10.35	8.85
Cc1cnn(CCNCc2c(C)nn(CCO)c2C)c1	-7.242	6.78
NC(=O)c1noc(Cn2ccc3ccccc3c2=O)n1	-9.292	8.197
COCCn1ccc(NCc2scnc2C)n1	-1.739	16.67
CNC(=O)c1cccc(CC2COCCN(Cc3ccc(C)o3)C2)n1 (configuration not stated)	-26.11	14.18
COc1ccc2cc(C(=O)NCCc3nc(C)no3)[nH]c2c1	-0.3735	15.04
O=C(Nc1cccnc1)c1noc2c1CN(S(=O)(=O)C1CC1)CC2	-6.302	9.709
Cc1cn2nc(N3CCCC3CC(C)(C)C)sc2n1 (configuration not stated)	5.937	10.81
CN(C)C(C(=O)N1CCC(c2ncc[nH]2)CC1)c1ccc2c(c1)OCO2 (configuration not stated)	-12.6	6.667
COC(=O)c1cc(OC)c(OC)cc1N(C)S(C)(=O)=O	15.44	-8.333

Repeated from the top, 5 entries:

For COc1ccc(N2CCCC3(C2)CN(c2nncs2)CCO3)cc1 (configuration not stated) the result was A: -11.82%; B: 6.195%.
For O=C(Cc1cccc(O)c1)N1CCC2(CC1)c1ccccc1CC2O (configuration not stated) the result was A: -7.065%; B: 16.8%.
For CCCC(=O)NC(C)(C)Cc1ccccc1OC the result was A: 1.562%; B: 8.036%.
For CN1CCOC(CNCc2coc(-c3ccccc3Cl)n2)C1 (configuration not stated) the result was A: -2.725%; B: 14.29%.
For CC(C)CN1CC(C(=O)N(C)CCc2cn[nH]c2)CC1=O (configuration not stated) the result was A: -1.682%; B: 13.33%.